The subject of series [1] is MmsR (LysR-type transcriptional regulator) (Pseudomonas denitrificans). Put plainly: EMSA. The settings on record: data not shown; purified recombinant protein; protein details: C-terminal 6xHis, expressed in E. coli BL21. In general terms: Mobility shift assays separate free from complexed probe on a gel.
For series [2] the test system is unchanged. Put plainly: footprint. The note with it: DNase I, capillary electrophoresis; O1 and O2 protected; MmsR 0-1.2 uM; purified recombinant protein; protein details: C-terminal 6xHis, expressed in E. coli BL21.

The exact form of at least one protein or probe is not confirmed. For some assays here: Negatives hold for the conditions tested.

For the sequence “GCCCCCGCCTACCCGCCCCAGCCACCCCGGACTCAGCAAGGATGCTGGCCCGGGCCTGGGCGGAGACGTCTTTCGCGCCCGACCATCAGAACAAGAGGACAACCCC (double strand) [PhbdH-4 promoter region]”, the binding result in series [1] was “no binding”. With “CCGCAGGTTGTCCCAGTCCATGTCAGCCTCAGCGCACCTCGAATGTGCAAAAACGCAGACCATACTTGCACATCACCGCATTGAGTACATCAAAAATGCACTGTTAGGATCGATCCAGACAACAAAAAAGCCACAGGCTGGGAGAATCCCGATGACCGCAACTGCCCCG (double strand) [DNase I footprinting fragment]”, in series [2], the binding result is “binds”.
